Measurements: article PMC8167164
These are yes or no findings as the source states them, for the method shown. In cells and extracts the contact can be indirect. Some binding calls cover weakened binding; strength is not graded here.

Amino acid sequences for entries named in this document (tags omitted).
UniProt Q9R1E0: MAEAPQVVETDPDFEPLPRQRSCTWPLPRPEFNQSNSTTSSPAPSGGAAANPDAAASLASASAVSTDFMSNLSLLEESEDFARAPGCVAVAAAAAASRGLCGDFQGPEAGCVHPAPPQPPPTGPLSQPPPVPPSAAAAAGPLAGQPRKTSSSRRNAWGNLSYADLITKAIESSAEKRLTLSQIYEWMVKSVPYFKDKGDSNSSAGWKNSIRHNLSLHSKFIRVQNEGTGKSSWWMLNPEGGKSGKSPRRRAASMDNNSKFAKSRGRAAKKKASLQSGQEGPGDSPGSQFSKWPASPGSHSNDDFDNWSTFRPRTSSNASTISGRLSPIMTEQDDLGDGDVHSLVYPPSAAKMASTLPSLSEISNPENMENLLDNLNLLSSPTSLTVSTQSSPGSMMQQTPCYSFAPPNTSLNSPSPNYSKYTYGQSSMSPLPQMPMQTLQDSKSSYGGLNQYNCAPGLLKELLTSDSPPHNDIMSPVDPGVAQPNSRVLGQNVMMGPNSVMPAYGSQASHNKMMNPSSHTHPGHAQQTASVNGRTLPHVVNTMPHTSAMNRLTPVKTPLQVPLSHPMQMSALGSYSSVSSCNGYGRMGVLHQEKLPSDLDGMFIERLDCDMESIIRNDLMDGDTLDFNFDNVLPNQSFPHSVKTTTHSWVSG

T1: β-catenin (mouse (endogenous in bone marrow-derived macrophages)), Q02248
T1 chain: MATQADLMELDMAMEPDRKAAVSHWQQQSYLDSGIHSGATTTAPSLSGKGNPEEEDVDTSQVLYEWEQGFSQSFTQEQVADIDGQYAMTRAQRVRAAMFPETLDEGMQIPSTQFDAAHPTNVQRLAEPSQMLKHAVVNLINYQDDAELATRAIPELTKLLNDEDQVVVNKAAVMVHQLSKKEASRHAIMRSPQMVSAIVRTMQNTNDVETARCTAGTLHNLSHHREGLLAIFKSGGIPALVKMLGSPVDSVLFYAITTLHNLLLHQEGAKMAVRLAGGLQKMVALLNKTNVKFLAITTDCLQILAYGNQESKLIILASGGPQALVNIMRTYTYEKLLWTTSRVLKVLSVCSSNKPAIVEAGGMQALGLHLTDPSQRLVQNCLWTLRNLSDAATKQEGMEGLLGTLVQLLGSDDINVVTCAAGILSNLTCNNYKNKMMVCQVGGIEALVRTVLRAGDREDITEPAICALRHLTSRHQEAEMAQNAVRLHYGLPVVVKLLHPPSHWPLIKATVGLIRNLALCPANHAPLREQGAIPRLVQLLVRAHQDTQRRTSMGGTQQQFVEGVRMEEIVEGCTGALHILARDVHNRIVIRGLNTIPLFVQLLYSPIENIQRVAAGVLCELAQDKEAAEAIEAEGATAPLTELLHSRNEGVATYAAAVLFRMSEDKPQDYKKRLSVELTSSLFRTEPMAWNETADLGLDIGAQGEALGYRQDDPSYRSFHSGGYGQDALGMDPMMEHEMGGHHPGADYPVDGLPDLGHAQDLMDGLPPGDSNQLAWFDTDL

B1: T-cell factor 4 (TCF4), Q924A0 1-459 (protein)
chain: MPQLNGGGGDDLGANDELISFKDEGEQEEKNSENSSAERDLADVKSSLVNESETNQDSSSDSEAERRPPPRSESFRDKSRESLEEAAKRQDGGLFKGPPYPGYPFIMIPDLTSPYLPNGSLSPTARTYLQMKWPLLDVQAGSLQSRQTLKDARSPSPAHIVSNKVPVVQHPHHVHPLTPLITYSNEHFTPGNPPPHLPADVDPKTGIPRPPHPPDISPYYPLSPGTVGQIPHPLGWLVPQQGQPVYPITTGGFRHPYPTALTVNASMSRFPPHMVPPHHTLHTTGIPHPAIVTPTVKQESSQSDVGSLHSSKHQDSKKEEEKKKPHIKKPLNAFMLYMKEMRAKVVAECTLKESAAINQILGRRWHALSREEQAKYYELARKERQLHMQLYPGWSARDNYGKKKKRKRDKQPGETNEHSECFLNPCLSLPPITDLSAPKKCRARFGLDQQNNWCGPCSL

What was measured:
[1] = biological target: Foxo1 transcription factor (mouse (endogenous in bone marrow-derived macrophages)) (UniProt Q9R1E0); test: co-IP; lysate of LPS-stimulated BMMs in NP-40 lysis buffer (50 mM Tris pH 7.4, 10 mM EDTA, 150 mM NaCl, 1% NP-40); Foxo1 antibody or control IgG with protein A/G beads, 4 °C overnight; immunoblot
[2] = biological target: T1, β-catenin (mouse (endogenous in bone …)); test: co-IP; immunoprecipitation of β-catenin and TCF4 from LPS-stimulated BMMs; cells transfected with CRISPR-Foxo1 activation vector (1 and 3 µg), or from Foxo1 FL/FL and Foxo1 M-KO mice; precipitating antibody not stated; conditions: remark: other sources report otherwise

| Molecule | binding [1] | binding [2] |
| --- | --- | --- |
| β-catenin (from UniProt Q02248 1-781) | binds |  |
| B1 |  | binds |
